# Results: PubChem BioAssay AID1347076 (National Center for Advancing Translational Sciences (NCATS), 2019)
# The campaign covered roughly 400,000 compounds. About 13,000 (3.2%) were called active. Inconclusive results, whose numbers are uncertain, are shown with a selection of clear calls. Calls follow the shape of the dose curve; as a rule, active = well fitted cell-killing curve with a large enough effect; inconclusive = small, poorly fitted or top-dose-only effect, or effect the other way; inactive = flat fitted curve, though single readings scatter. Potencies beside an inconclusive call are fits to weak or partial responses and may not hold up.
# Test: qHTS assay for MDR1-selective chemotherapeutics: Primary screen using the drug-selected MDR subline cells KB-V1; also: nearly all actives have a fitted effect of over 60% in size
# Conditions: KB-V1 MDR cells viability, CellTiter-Glo, 72 h; activity change, negative = cytotoxicity: at 46.1 µM (top of the series)
# Summary of the method: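 Potencies derive from concentration-effect curves fitted to normalized luminescence (CellTiter-Glo) of KB-V1 cells treated for 72 h at 37 degrees C in phenol-red-free DMEM containing 10% FBS.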
# % is scaled to controls: 0 for no effect and ±100 for the full control effect; potency is read from the fitted curve at half-maximal effect.
Structure (SMILES),Potency,"activity change, negative = cytotoxicity"
O=C(NNC(=S)Nc1ccccc1Cl)C1CC1,"inconclusive: 10.3 µM [rising, partial curve]",–
Cc1ccc(N2CCN(C3=NC(=O)/C(=C\c4cn[nH]c4-c4ccccc4)S3)CC2)cc1,–,inactive: -16.6%
COc1ccc(NC(=O)CSc2nnnn2Cc2ccccc2)cc1,"inconclusive: 20.6 µM [cytotoxic, single point]",–
CNC(=O)Nc1cccc(C(F)(F)F)c1,"inconclusive: 32.6 µM [rising, single point]",–
CCO/N=C/c1ccc(OC)c(Oc2nc(OC)cc(OC)n2)c1,–,inactive: -20.6%
CC(C)c1c(C(=O)N/N=C2\CCc3ccccc32)nnn1-c1nonc1N,–,inactive: -11.7%
CCN1CCN(C(c2ccccc2)c2nnnn2Cc2ccc3c(c2)OCO3)CC1 (stereo not given),"inconclusive: 32.6 µM [rising, partial curve, poor fit]",–
CC(=O)Nc1ccccc1-c1nc2ccccc2n(C(C)C(=O)c2ccc(C)c(C)c2)c1=O (stereo not given),"inconclusive: 1.03 µM [cytotoxic, full curve, poor fit]",–
COCCN(Cc1cc2ccc(C)cc2[nH]c1=O)S(=O)(=O)c1ccccc1,"inconclusive: 9.2 µM [cytotoxic, partial curve]",–
Fc1ccc(-c2cnn3c(-c4cccs4)ccnc23)cc1,"inconclusive: 25.9 µM [cytotoxic, single point]",–
c1ccc(Cc2noc(CN3CCN(C4CCc5ccccc5C4)CC3)n2)cc1 (stereo not given),"inconclusive: 6.51 µM [cytotoxic, partial curve]",–
CCOC(=O)[C@]12CCC=C1N(Cc1cccc3ccccc13)C(=O)[C@H](CC(=O)NCCCCc1ccccc1)C2,active: 16.4 µM,–
CCN(c1ccccc1)S(=O)(=O)c1nnc(NC(=O)COc2ccccc2F)s1,–,inactive: 18.9%
CCOC(=O)C(=Nc1ccc(Cl)cc1)NO,"inconclusive: 16.4 µM [rising, single point]",–
COC(=O)[C@]12CCCCC=C1N(CCc1ccc(OC)c(OC)c1)C(=O)[C@H](CC(=O)NCc1cccc3ccccc13)C2,active: 20.6 µM,–
Cc1cccc(NC(=O)COc2cccc3c2CCN(C)C3=O)c1,"inconclusive: 20.6 µM [cytotoxic, single point]",–
COc1c(Br)cc(Br)cc1/C=N/n1c(C)nnc1C,"inconclusive: 29.1 µM [cytotoxic, single point]",–
Cc1cc(C)c(NC(=O)CCc2c(C)noc2C)c(C)c1,"inconclusive: 20.6 µM [cytotoxic, partial curve, poor fit]",–
O[C@@H]1CN(CC2CCCCC2)[C@@H](c2ccc(Cl)cc2)C[C@H]1n1cc(C2CC2)nn1,"inconclusive: 29.1 µM [cytotoxic, single point]",–
O=C(NCc1cccnc1)c1ccc(S(=O)(=O)N2CCCCCC2)cc1,"inconclusive: 18.4 µM [cytotoxic, single point]",–
O=C(CN1C(=O)/C(=C/c2ccccc2)SC1=S)NNC(=O)c1ccccc1O,"inconclusive: 29.1 µM [rising, single point]",–
Cc1[nH][nH]c(=O)c1C(c1c(C)[nH][nH]c1=O)c1cn(Cc2ccccc2Cl)c2ccccc12,active: 18.4 µM,–
COCCn1c(C)cc(C(=O)COC(=O)c2ccc[nH]c2=O)c1C,–,inactive: -8.53%

Structure (SMILES),Potency,"activity change, negative = cytotoxicity"
CCOC(=O)c1cc(C#N)c(Oc2ccccc2OC)nc1-c1ccccc1,–,inactive: -16%
Cc1ccc(S(=O)(=O)N2CCN(C(=O)CCC(=O)Nc3ccc(Br)c(C)c3)CC2)cc1,active: 13 µM,–
Cc1ccc(C)c(NC2=NS(=O)(=O)c3ccccc32)c1,"inconclusive: 2.06 µM [rising, single point]",–
Cc1ccc(-c2nnc(NC(=O)CCS(=O)(=O)c3ccccc3)o2)c(C)c1,–,inactive: -2.56%
CC(=O)Nc1c(I)c(C(=O)N[C@H]2C(O)O[C@H](CO)[C@@H](O)[C@@H]2O)c(I)c(N(C)C(C)=O)c1I (stereo not given in full),–,inactive: 25.5%
CN1CCC(N2CCN(C3CN(Cc4cn(Cc5ccc(F)cc5)nn4)S(=O)(=O)C3)CC2)CC1 (stereo not given),–,inactive: -1.33%
CCOC(=O)CCCCCC(=O)Nc1ccc2c(c1)CC(=O)N([C@H](C)CO)C[C@@H](C)[C@H](CN(C)Cc1ccc3c(c1)OCO3)O2,–,inactive: -0.0234%
COc1ccc(CCCc2nnc(SCC(=O)NN)o2)c(C)c1,"inconclusive: 32.6 µM [rising, single point]",–
Cc1ccccc1C1=NC(C(F)(F)F)(C(F)(F)F)c2c(n(C)c(=O)n(C)c2=O)N1,active: 16.4 µM,–
COc1cc(C=C2Cc3ccccc3C2=O)cc(OC)c1OC,"inconclusive: 23.1 µM [cytotoxic, single point]",–
Clc1ccc(NN(Cc2ccncc2)c2ccc(Cl)cc2)cc1,"inconclusive: 29.1 µM [cytotoxic, single point]",–
Cc1cc(C)n(-c2nc3cc(Cl)c(Cl)cc3nc2Nc2c(C)cccc2C)n1,–,inactive: 14.9%
O=C(CN1CCOc2ccccc21)NC1CC1,"inconclusive: 6.51 µM [rising, partial curve]",–
O=C(CCS(=O)(=O)c1ccccc1)N(CCCN1CCOCC1)c1nc2ccccc2s1,"inconclusive: 20.6 µM [cytotoxic, single point]",–
CC(=O)c1ccc2c(c1)N(Cc1ccccc1Cl)C(=O)C(C)S2 (stereo not given),"inconclusive: 29.1 µM [cytotoxic, single point]",–
CCCCc1nc(SCC(=O)N2CCCC2)c2c(=O)n(C)c(=O)n(C)c2n1,"inconclusive: 25.9 µM [cytotoxic, single point]",–
Oc1ccc(C[C@H]2CNCCN2CCC23CC4CC(CC(C4)C2)C3)cc1,–,inactive: -21.4%
O=C(Nc1ccc2c(c1)OCCO2)N1CCN(c2ccc(F)cc2)CC1,active: 20.6 µM,–
COC(=O)c1ccc(NC(=O)C2CCCN(S(C)(=O)=O)C2)cc1 (stereo not given),"inconclusive: 6.51 µM [rising, partial curve, poor fit]",–
COC(=O)C1CN(C(=O)C(C)Oc2ccccc2F)c2ccccc2O1 (stereo not given),"inconclusive: 13 µM [rising, partial curve]",–
O=C1S/C(=C\C=C\c2ccco2)C(=O)N1c1ccc(O)cc1,–,inactive: 20.5%
CC(O)c1nc2ccccc2n1C/C=C/c1ccccc1 (stereo not given),active: 14.6 µM,–

# Quoted from the listing:
# activity change, negative = cytotoxicity, CN1CCC(N2CCN(C3CN(Cc4cn(Cc5ccc(F)cc5)nn4)S(=O)(=O)C3)CC2)CC1 (stereo not given) is entered as inactive: -1.33%
# activity change, negative = cytotoxicity, CCOC(=O)c1cc(C#N)c(Oc2ccccc2OC)nc1-c1ccccc1 is entered as inactive: -16%
# Potency, COc1ccc(CCCc2nnc(SCC(=O)NN)o2)c(C)c1 is entered as inconclusive: 32.6 µM [rising, single point]
